Values quoted from earlier work in patent US12331037B2, “Pyrimidines as EGFR-inhibitors and methods of treating disorders” (Dana-Farber Cancer Institute, Inc., priority 2014, dated 2025).
For at least one compound, name, drawing or mass did not settle the structure.

Test system: NSCLC that have developed resistance to gefitinib or erlotinib
Settings: patients with NSCLC that have developed resistance to gefitinib or erlotinib; cited from earlier work

SMILES: CN(C)C/C=C/C(=O)Nc1cc2c(Nc3ccc(F)c(Cl)c3)ncnc2cc1O[C@H]1CCOC1 [afatinib]
- RR (response rate): < 10%
